Measurements: PubChem BioAssay AID445 (National Center for Advancing Translational Sciences (NCATS), 2006)
The list shows a part of the results. These are further read-outs of the screen, such as a control signal, another cell line or another target. No call is given for them. Most of these compounds were active or inconclusive in the main read-out, so they are no random draw. Potencies come from curve fits of mixed quality, noted in brackets.

Experiment: IkB Signaling
Conditions: ABC-DLBCL IkBa-CBG/CBR dual luciferase ratio (green luciferase fused to IkBa over red control in OCI-Ly3 lymphoma cells), 4 h; measured here: control luc red channel unless noted
Outline: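 Curves were fitted separately to fusion (green), unfused (red) and ratio luminescence, then classed by r2, magnitude and activity. Cells: OCI-Ly3, 4 h compound plus doxycycline at 37C; 10 uM MG-132 defined full response.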

SMILES	AC50
CCOc1ccc(C(=O)N2CCC(c3nc(-c4ccc(S(=O)(=O)N5CCCC5)cc4)no3)CC2)cc1	15.8 µM [falling, partial curve]
Cc1ccc(C(C)C)c(OCC(=O)Nc2cccc(-c3nc4ncccc4o3)c2)c1	6.31 µM [falling, partial curve]
CCOc1ccc(NC(=O)N(Cc2ccc(CC)cc2)Cc2cn[nH]c2-c2ccc(OC)cc2)cc1	25.1 µM [falling, single point]
O=c1[nH]ncc2ccccc12	794 nM [rising, full curve] [measured here: IkB-luc green channel]
CC(=O)Nc1ccc(NC(=O)CSc2cn(CC(=O)N(C(C)C)C(C)C)c3ccccc23)cc1	31.6 µM [falling, single point]
Cc1ccc(-c2noc(CN(C3CCCCC3)S(=O)(=O)c3ccc(F)cc3)n2)cc1	12.6 µM [falling, partial curve]
COc1ccc(OCCn2cc(C(=O)c3ccco3)c3ccccc32)cc1	0.251 µM [falling, full curve]
CC1(C)CC(=O)C=C(Nc2ccccc2O)C1	3.16 µM [falling, partial curve]
CCC(C)Sc1nc2c([nH]c3ccccc32)c(=O)n1C (stereo not given)	0.631 µM [rising, full curve]
COc1ccc(-c2nc(C)c(CCNC(=O)c3ccco3)s2)cc1	10 µM [rising, partial curve, poor fit]
Cc1ccccc1COC(=O)c1ccc(-c2nnn(Cc3ccccc3F)n2)cc1	3.98 µM [rising, full curve, poor fit]
CCN1CCN(C(=O)c2ccc3c(c2)N(Cc2c(F)cccc2Cl)C(=O)c2ccccc2S3)CC1	12.6 µM [falling, partial curve]
Cc1oc2ccc(O)c(CN3CCN(C)CC3)c2c1C(=O)Nc1ccc(C(C)C)cc1	12.6 µM [falling, partial curve]
Cc1cc(C)n2nc(NCc3ccccc3Cl)nc2n1	31.6 µM [falling, partial curve]
CCN(CC)c1ccc(C(=O)Nc2ccc3nc(N(CC)CC)cc(C)c3c2)cc1	15.8 µM [falling, partial curve]
Cc1ccc2[nH]c(CSc3nnc(NC(=O)COc4ccccc4Cl)s3)cc(=O)c2c1	0.398 µM [falling, full curve, poor fit]
CCc1ccc(NC(=O)C2CCCN(S(=O)(=O)c3cccc4cccnc34)C2)cc1 (stereo not given)	31.6 µM [falling, single point]
O=C(/C=C/Nc1ccc(F)c(Cl)c1)c1ccco1	25.1 µM [falling, partial curve]
Cc1ccc(CNC(=O)c2sc3ncnc(N(C)C4CCCCC4)c3c2C)cc1	39.8 µM [falling, single point]
O=S(=O)(NCC(c1ccco1)N1CCOCC1)c1ccc(Cl)cc1 (stereo not given)	3.98 µM [rising, single point]

As entered above:
Under AC50, O=c1[nH]ncc2ccccc12 reads 794 nM [rising, full curve] [measured here: IkB-luc green channel]
Under AC50, CCN1CCN(C(=O)c2ccc3c(c2)N(Cc2c(F)cccc2Cl)C(=O)c2ccccc2S3)CC1 reads 12.6 µM [falling, partial curve]
Under AC50, O=C(/C=C/Nc1ccc(F)c(Cl)c1)c1ccco1 reads 25.1 µM [falling, partial curve]

(list continues)

SMILES	AC50
Cc1ccccc1NC(=O)C1CCN(S(=O)(=O)c2ccccc2)CC1	12.6 µM [falling, partial curve, poor fit]
CCc1nnc(NC(=O)CSc2nc3c([nH]c4ccccc43)c(=O)n2-c2ccc(C)cc2)s1	0.501 µM [rising, full curve, poor fit]
COc1ccc2noc3c2c1C(=O)c1ccccc1-3	6.31 µM [falling, full curve]
Cc1ccc(C)c(-c2ccc(=O)n(Cc3ccc(F)cc3Cl)n2)c1	3.16 µM [rising, partial curve]
CCOC(=O)C1CCCN(C(=O)Cn2ncc3c4ccccc4n(Cc4ccc(F)cc4)c3c2=O)C1 (stereo not given)	12.6 µM [falling, partial curve]
O=C(COc1ccccc1)Nc1sc2c(c1C(=O)Nc1ccccc1)CCCCC2	2.51 µM [falling, full curve]
Cc1ccc(-c2nnn(CC(=O)N(CC(=O)NCC3CCCO3)c3ccc(F)c(Cl)c3)n2)o1 (stereo not given)	20 µM [falling, partial curve]
CC(C)(C)c1ccc(C(=O)Nc2ccc(OCc3cc(=O)n4ccsc4n3)cc2)cc1	6.31 µM [falling, full curve]
Cc1cc(N2CCN(c3ccccc3)CC2)n2cnnc2n1	5.01 µM [falling, full curve]
CCCN1CCN(CCCNC(=O)c2ccc3c(c2)sc2nc(-c4ccc(OCC)cc4)cn23)CC1	5.01 µM [falling, full curve, poor fit]
CCOc1ccc(-c2cn3c(n2)sc2cc(C(=O)N4CCCC(C)C4)ccc23)cc1 (stereo not given)	10 µM [falling, partial curve]
Cc1cc(C)cc(OCC(=O)N(Cc2ccc(Cl)cc2)C2CCS(=O)(=O)C2)c1 (stereo not given)	39.8 µM [falling, single point]
COc1cc(C2=NOC(C(=O)NCc3ccc(F)cc3)C2)cc(OC)c1OC (stereo not given)	10 µM [falling, partial curve]
Cc1ccc2c(c1)-c1c(cnn1CC(=O)N1CCN(c3cc(C)ccc3C)CC1)CO2	10 µM [falling, partial curve]
CCOC(=O)N1CCC(Nc2ncnc3c2cnn3-c2ccccc2)CC1	12.6 µM [falling, partial curve]
CC(C)N1CCc2c(sc(NC(=O)c3ccc(S(=O)(=O)N(C)C4CCCCC4)cc3)c2C(N)=O)C1	20 µM [falling, partial curve, poor fit]
Cn1nc(-c2ccccc2F)c2cc(C(=O)N3CCN(C(=O)c4ccco4)CC3)sc21	12.6 µM [falling, partial curve]
COCCc1nn2c(=O)cc(COC(=O)c3ccco3)nc2s1	39.8 µM [falling, single point]
COc1cccc(-c2nn(C)c3sc(C(=O)NCc4ccc(C)o4)cc23)c1	3.16 µM [falling, full curve]
CSc1cccc(NC(=O)CN(c2cc(C)ccc2C)S(C)(=O)=O)c1	20 µM [falling, partial curve]
